# PubChem BioAssay AID1053208 – Peter MacCallum Cancer Centre | 2014
# Purpose: 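Genes whose silencing cuts survival of bone tumour cells only with doxorubicin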 (primary screen)
# Cells: mouse osteosarcoma cells, early-passage culture from an engineered mouse model of fibroblastic bone tumour
# Reagents: siRNA pool against mouse genes, 40 nM
# Duration: about 120 h (48 h before drug, then 72 h with drug)
# Treatment: doxorubicin 100 nM for 72 h, roughly 30-40% inhibitory dose
# Measurement: 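Luminescent ATP signal taken as viability with or without 100 nM doxorubicin for 72 h; mean of two wells set against non-targeting siRNA and turned into robust z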
# Direction: viability z-score with doxorubicin: higher = more viable cells under doxorubicin; viability z-score without drug: higher = more viable cells with knock-down alone
# Rule for the call: 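a pool counts as active when its viability z-score with doxorubicin is -2 or below and its z-score without drug lies between -2 and 2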
# Shown is an unselected part of about 17,000 deposited reagents. 788 of them (4.7%) were called active. 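Calls rest on z-score classes alone; an extra cut-off of viability at most 70% of control was not applied to them.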 Not all columns of the deposit are shown.
Gene,combined z-score class,viability z-score with doxorubicin,viability z-score without drug,outcome
Fam167b,no change with or without drug,0.9,-0.67,inactive
Lgalsl,no change with or without drug,-0.22,0.34,inactive
Prl3b1,high cell count without drug only,-0.67,2.19,inactive
Smco4,no change with or without drug,-0.67,0.67,inactive
Rnf43,no change with or without drug,-0.67,-0.34,inactive
Lamp3,no change with or without drug,-0.67,0.34,inactive
Foxi1,no change with or without drug,1.69,1.52,inactive
Imp4,no change with or without drug,-0.67,1.69,inactive
Rgmb,no change with or without drug,1.35,0.51,inactive
Flcn,no change with or without drug,0.9,0.84,inactive
Rxrg,no change with or without drug,-0.11,0.34,inactive
Chp1,no change with or without drug,0,0,inactive
Ano10,no change with or without drug,-0.45,0.67,inactive
Mras,high cell count with doxorubicin only,2.02,-0.84,inactive
Adgra3,no change with or without drug,0.45,-1.18,inactive
Chac1,high cell count without drug only,-0.67,3.04,inactive
1110056A04RIK,no change with or without drug,-1.35,-1.18,inactive
Arhgap31,no change with or without drug,-1.35,-0.17,inactive
Ovol1,no change with or without drug,-1.8,-0.51,inactive
Faim,no change with or without drug,0.45,0.17,inactive
Hmgxb3,no change with or without drug,1.35,-0.17,inactive
Taf8,high cell count with and without drug,2.81,3.2,inactive
Tacr1,no change with or without drug,-0.67,-0.84,inactive
Man2a2,no change with or without drug,-1.69,-1.18,inactive
Arfgap3,no change with or without drug,-1.57,-1.35,inactive
Rps4x,low cell count with and without drug,-4.27,-4.38,inactive
Zfp143,no change with or without drug,0.22,1.01,inactive
Pitpnm1,no change with or without drug,1.69,-0.67,inactive
Tas2r125,no change with or without drug,0.9,1.18,inactive
Brca1,low cell count with and without drug,-2.14,-2.19,inactive
Tuba3b,no change with or without drug,0.9,0,inactive
Inmt,no change with or without drug,-0.22,-0.51,inactive
Il12a,no change with or without drug,1.35,0.84,inactive

7 entries already listed, ordered by “viability z-score with doxorubicin”, highest first.
Gene,combined z-score class,viability z-score with doxorubicin,viability z-score without drug,outcome
Mras,high cell count with doxorubicin only,2.02,-0.84,inactive
Adgra3,no change with or without drug,0.45,-1.18,inactive
Faim,no change with or without drug,0.45,0.17,inactive
Chac1,high cell count without drug only,-0.67,3.04,inactive
1110056A04RIK,no change with or without drug,-1.35,-1.18,inactive
Arhgap31,no change with or without drug,-1.35,-0.17,inactive
Ovol1,no change with or without drug,-1.8,-0.51,inactive

Further entries follow.
Gene,combined z-score class,viability z-score with doxorubicin,viability z-score without drug,outcome
Mef2c,no change with or without drug,0.45,0.84,inactive
Phgr1,no change with or without drug,0.9,-0.17,inactive
Dck,no change with or without drug,-0.22,-0.51,inactive
Psmb9,no change with or without drug,-0.45,0.17,inactive
Cep41,no change with or without drug,-0.67,-0.17,inactive
Tep1,no change with or without drug,-1.35,-1.52,inactive
Lyset,no change with or without drug,-0.45,0.17,inactive
Or2y1d,no change with or without drug,-1.69,-1.85,inactive
Irx4,no change with or without drug,0.22,-0.51,inactive
Zfp786,no change with or without drug,-0.34,-0.51,inactive
Nt5c3b,no change with or without drug,0.9,-0.17,inactive
Tnfrsf19,no change with or without drug,0.22,1.52,inactive
Cxcl16,no change with or without drug,0.67,-0.51,inactive
Sall3,no change with or without drug,-1.01,-0.51,inactive
Ramp3,no change with or without drug,-0.67,0.51,inactive
Elp2,no change with or without drug,-0.22,-0.51,inactive
Ripk1,high cell count without drug only,-1.57,2.19,inactive
